Drawing on PubChem BioAssay AID2685 (National Center for Advancing Translational Sciences (NCATS), 2010), this text covers cell number change and AC50 for 63 compounds.

As usually defined, the AC50 is the concentration giving half of the maximal activity seen. A higher AC50 goes with activity only at high concentration.

The other results are listed elsewhere or left out. The main result of the screen is listed elsewhere. These columns were measured beside it and carry no call. Most of these compounds were active or inconclusive in the main read-out, so they are no random draw. The note in brackets gives the kind of curve behind each potency; many fits are weak.

The assay is described as follows: qHTS Assay for Lipid Storage Modulators in Drosophila S3 Cells.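 For cell number change: cells counted by Cell Tracker Red CMTPX staining in the red channel.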 The note with it: BODIPY lipid droplet fluorescence, 18-24 h; for cell number change: measured here: cell count max response, cells fed with added oleic acid. In a few lines:
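Laser-scanning cytometry quantifies lipid droplet accumulation (500–530 nm total intensity; droplet/cell object ratio) in oleic acid-fed (400 uM added) Drosophila S3 cells treated with a concentration series. 20 uM Triacsin C defined 100% inhibition.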
For orientation: In qHTS, concentration-response curves come from the screen itself.

Setting [1] is: measured here: lipid fluorescence (Fed channel) AC50, cells fed with added oleic acid.
Setting [2] is: measured here: cell number channel AC50, cells fed with added oleic acid.

Regarding `CC(C)(C)C1CCC(=NNC(=O)c2ccco2)CC1` (stereo not drawn), the cell number change was -23.1%.
Consider `O=C(C1CCC(=O)N(C2CCCC2)C1)N1CCN(Cc2cccc(F)c2)CC1` (stereo not drawn), for which the AC50 under setting [1] was 6.51 µM [falling, single point].
As for `O=C(CN1C(=O)/C(=C/c2ccccc2)SC1=S)Nc1cccnc1`, the cell number change was -20%. Besides, the AC50 under setting [2] was 0.13 µM [falling, full curve, poor fit]. For the same compound, the AC50 under setting [1] is 0.103 µM [falling, full curve, poor fit].
As for `CCOC(=O)CC(=O)Nc1nc2ccccc2s1`, the cell number change was 5.72%.
As to `CCCc1nnc(SCC(=O)N2C(C)CCCC2C)n1CCCOC` (stereo not drawn), the cell number change came to 27.4%. Under setting [1], the AC50 was 2.59 µM [rising, full curve].
Take `Cn1cc(Cl)cc(C(=O)Nc2ccccc2)c1=O`: the cell number change turned out to be 16.7%.
For the compound `CCOc1ccc2[nH]c(=O)c(C(c3nnnn3C3CCCCC3)N3CCN(CC)CC3)cc2c1` (stereo not drawn), the cell number change was -7.74%. The AC50 under setting [1] is 0.92 µM [falling, single point].
`Cc1cc(NC(=O)c2cccc(Cl)c2)n[nH]1`: the cell number change was -3.72%. For the same compound, under setting [1], the AC50 was 6.51 µM [rising, full curve, poor fit].
As for `Cc1c(Cl)c([N+](=O)[O-])nn1Cc1ccc(C(=O)N/N=C\c2ccccn2)o1`, the cell number change turned out to be 31%. Further, the AC50 under setting [2] was 0.731 µM [rising, full curve]. Under setting [1], the AC50 is 23.1 µM [rising, partial curve, poor fit].
For `COC(=O)c1ccc(CNC(=O)CSC(C)C(=O)Nc2cc(C)on2)cc1` (stereo not drawn), the cell number change is -17.5%.
As for `COc1ccc(C(=O)COC(=O)c2ccco2)cc1`, the cell number change came out at 2.37%. Also, under setting [1], the AC50 was 0.58 µM [falling, single point].
Take `Clc1ccccc1OCCCCN1CCCCC1`: the cell number change is 7.09%.
With `CC(NCc1ccc(S(N)(=O)=O)cc1)C(=O)Nc1cc([N+](=O)[O-])ccc1Cl` (stereo not drawn), the cell number change turned out to be 53.1%.
Take `CN(C)Cc1c(O)ccc2c(=O)c(-c3ccccc3Cl)coc12`: the cell number change was 3.38%. Also, under setting [1], the AC50 is 0.517 µM [rising, full curve, poor fit].
In the case of `CCCCc1nc2ccccc2c(=O)n1NC(=O)c1c(O)c2cccc3c2n(c1=O)CCC3`, the cell number change is 0.708%. Besides, the AC50 under setting [1] is 0.00461 µM [falling, full curve, poor fit].
Take `O=C(Nc1ccc(OC(F)(F)F)cc1)Oc1ccccc1N1CCOCC1`: the cell number change was -28.3%. Besides, the AC50 under setting [1] is 32.6 µM [falling, single point].
As to `CCCC1C(c2ccco2)NC(c2ccco2)CC1(C)O` (stereo not drawn), the cell number change was -8.88%.
Consider `Cc1cccc(N2CC(C(=O)Nc3cccc(S(=O)(=O)N4CCCCC4)c3)CC2=O)c1C` (stereo not drawn), for which the cell number change was -11.1%. For the same compound, the AC50 under setting [1] is 23.1 µM [rising, single point].
As to `Cn1c(C(=O)O)cnc1Sc1ncc(C(F)(F)F)cc1Cl`, the cell number change turned out to be 51.3%.
As to `O=C(NCc1cccnc1)/C(=C\c1ccc(-c2cccc(Cl)c2)o1)S(=O)(=O)c1ccccc1`, the cell number change was -38.8%. Also, the AC50 under setting [2] is 9.2 µM [falling, single point].
On to `Cc1cc(O)c(/C=N/Nc2cccc(Cl)c2)c(=O)o1`, for which, under setting [1], the concentration at half-maximal activity (AC50) is 0.58 µM [falling, full curve].
`C=CCNC(=O)c1nn2cccnc2c1Cl`: the cell number change was 9.22%. Moreover, the AC50 under setting [1] is 9.2 µM [rising, partial curve].
In the case of `CCOC(=O)/C(C#N)=C1\Nc2ccccc2N=C1N(CC(C)C)CC(C)C`, the cell number change was -83.3%. Besides, the AC50 under setting [2] is 9.2 µM [falling, partial curve]. Under setting [1], the half-maximal activity concentration (AC50) is 11.6 µM [falling, partial curve].
Consider `CC(Oc1ccc(F)cc1)C(=O)Nc1ccc(N2CCOCC2)cc1N1CCOCC1` (stereo not drawn), for which the cell number change came out at 14.4%. Under setting [1], the AC50 was 5.8 µM [rising, partial curve].
On to `COC(=O)c1c(C)[nH]c(C(=O)C(C)OC(=O)c2c(C)noc2C)c1C` (stereo not drawn), for which the cell number change was 30.1%. For the same compound, under setting [2], the half-maximal activity concentration (AC50) was 14.6 µM [rising, single point]. The AC50 under setting [1] is 14.6 µM [rising, partial curve, poor fit].
In the case of `Cc1ccc2nc(C)c(C(=O)NN=C3CCN(C)CC3)n2c1`, the cell number change is -15.3%. Besides, the AC50 under setting [2] is 0.58 µM [falling, single point]. For the same compound, the AC50 under setting [1] was 0.259 µM [falling, full curve].
As to `O=C(Nc1ccc(Nc2ccccc2)cc1)Nc1ccccc1Cl`, the cell number change came to 7.8%. Besides, the AC50 under setting [1] is 29.1 µM [rising, single point].
For the compound `CCOC(=O)C(C(=O)OCC)C(Nc1ccc(Br)cc1)c1ccccc1` (stereo not drawn), the cell number change was -9.01%. Besides, the AC50 under setting [1] was 9.2 µM [falling, partial curve, poor fit].
Take `O=C(c1cc(-c2cccs2)nc2ccccc12)N1CCN(S(=O)(=O)c2ccccc2)CC1`: the cell number change stood at 65.9%. The half-maximal activity concentration (AC50) under setting [2] was 4.11 µM [rising, full curve].
As for `O=C(c1cnn(C(=O)c2ccc(O)cc2)c1)c1ccccc1O`, the cell number change was found to be 10.5%.
In the case of `Cc1c(N=Cc2ccncc2)c(=O)n(-c2ccccc2)n1C`, the cell number change is -6.31%. In addition, under setting [1], the AC50 was 3.66 µM [falling, single point].
On to `CCOC(=O)C(C)Oc1ccc(NC(=O)C(Cl)Cl)cc1` (stereo not drawn), for which the cell number change is -4.52%.
For `CS(=O)(=O)c1ccc2nc(NC(=O)Nc3ccccc3F)sc2c1`, the cell number change amounted to 33%. Besides, under setting [1], the AC50 was 0.517 µM [rising, full curve, poor fit].
On to `CC(Oc1cccc(NC(=O)c2cccs2)c1)C(=O)c1ccccc1` (stereo not drawn), for which the cell number change is -46.9%. The AC50 under setting [2] is 29.1 µM [falling, single point]. Further, the AC50 under setting [1] is 1.16 µM [falling, full curve].
Turning to `CN(C(=O)c1cc2n(n1)C(C(F)(F)F)CC(c1ccco1)N2)c1ccccc1` (stereo not drawn), the cell number change was found to be 30.9%. Under setting [2], the AC50 was 3.26 µM [rising, partial curve]. Also, the AC50 under setting [1] is 1.3 µM [rising, full curve].
Turning to `NS(=O)(=O)c1ccc(CNC(=O)C(c2ccccc2)c2ccccc2)cc1`, the cell number change was -14.3%. In addition, under setting [1], the AC50 was 0.184 µM [falling, full curve, poor fit].
Turning to `CCC(=O)Nc1nc(-c2ccccc2)nc(SC)c1C(C)=O`, the cell number change stood at 0.543%. The AC50 under setting [2] was 1.3 µM [rising, full curve]. Further, the AC50 under setting [1] was 1.84 µM [rising, partial curve].
In the case of `CC(=O)N1CCN(C(=O)c2ccc(NS(=O)(=O)c3ccc4c(c3)OCCO4)cc2)CC1`, the cell number change was -131%. Also, the AC50 under setting [2] is 5.8 µM [falling, partial curve]. In addition, the AC50 under setting [1] is 5.17 µM [falling, single point].
As to `O=C(COC(=O)C12CC3CC(CC(O)(C3)C1)C2)Nc1cccc(Br)c1`, the cell number change is 19.5%.
As for `COc1ccc(-c2cc(C(=O)NCCN3CCOCC3)c3ccccc3n2)cc1OC`, the cell number change came to 6.36%. Also, the AC50 under setting [1] was 25.9 µM [rising, partial curve].
Regarding `O=C(COc1ccc(Cl)cc1)NCc1ccncc1`, the cell number change came to 3.01%. Further, the AC50 under setting [2] is 4.11 µM [falling, partial curve, poor fit]. Further, the AC50 under setting [1] was 6.51 µM [falling, single point].
With `CC(C)c1ccc(NC2CCCN(C(=O)c3ccc(N4CCOCC4)cc3)C2)cc1` (stereo not drawn), the cell number change was 1.16%. For the same compound, the AC50 under setting [2] is 0.58 µM [rising, full curve, poor fit].
With `COc1cccc(/C(C)=N/N=C(\C)c2cccc(OC)c2)c1`, the cell number change was found to be 16.1%.
`O=C(CCS(=O)(=O)c1ccccc1)Nc1ncc([N+](=O)[O-])s1`: the AC50 under setting [1] is 4.11 µM [falling, full curve].
Consider `COc1ccc(C2N(c3ccccn3)C(=O)C3CCCN32)c(OC)c1` (stereo not drawn), for which the cell number change was -8.06%. For the same compound, the AC50 under setting [1] was 2.59 µM [rising, single point].
In the case of `CCN(c1ccccc1)S(=O)(=O)c1ccc(C(=O)N(CCCN(C)C)c2nc3cc4c(cc3s2)OCO4)cc1`, the cell number change was -23.8%. In addition, the AC50 under setting [1] was 5.8 µM [rising, single point].
Consider `Cc1cnc(C(=O)OCC(=O)N2CCN(C(=O)c3ccco3)CC2)cn1`, for which the cell number change is -1.35%.
Regarding `O=C(CN1C(=O)NC2(CCc3ccccc32)C1=O)Nc1ccc(Br)cc1F` (stereo not drawn), the cell number change was 9.31%. Further, the AC50 under setting [1] was 0.00461 µM [rising, full curve, poor fit].
For the compound `CCc1c(C)nc2ncnn2c1Nc1ccc(C#N)c(Cl)c1`, the cell number change is -16.7%.
Same read-out and setting: to `Fc1ccccc1CNC(=S)NCc1ccc(Cl)cc1` belongs 3.47%.
For the compound `COc1cccc(NC(=O)CN2C(=O)CSc3nc(C)cc(C)c32)c1`, the cell number change came out at 8.36%. Further, under setting [1], the AC50 is 20.6 µM [rising, single point].
With `CN(Cc1ccccc1)C(=O)c1ccccc1C(=O)O`, the cell number change was 22.7%. The AC50 under setting [2] is 0.116 µM [rising, full curve, poor fit].
With `Oc1ccc(Br)cc1-c1cc(-c2ccco2)[nH]n1`, the cell number change is -10.5%. Under setting [2], the AC50 is 0.651 µM [falling, single point].
For the compound `CCOc1ccc2nc(N3CCCC(C(=O)NC4CCCC4)C3)sc2c1` (stereo not drawn), the cell number change turned out to be 4.58%.
As for `O=c1c(-c2ccc(O)cc2)coc2cc(OC3OC(CO)C(O)C(O)C3O)ccc12` (stereo not drawn), the cell number change is -19.5%. In addition, the AC50 under setting [1] was 4.11 µM [falling, full curve, poor fit].
Take `CC(C)Oc1ccc(S(=O)(=O)N2CCOCC2)cc1NC(=O)c1cc([N+](=O)[O-])ccc1N1CCOCC1`: under setting [1], the AC50 was 29.1 µM [rising, single point].
As to `CCCCCOC(=O)C1=C(C)Nc2nnnn2C1c1ccccc1Cl` (stereo not drawn), the cell number change was -81.5%. The AC50 under setting [2] was 29.1 µM [falling, single point]. Under setting [1], the AC50 was 29.1 µM [falling, single point].
As for `CCOc1ccc(CN2CCC(n3nccc3NC(=O)c3ccccc3OC)CC2)cc1`, the cell number change was found to be 3.96%. Also, the AC50 under setting [2] was 0.731 µM [rising, single point].
For `Cc1c(C(=O)NC(C)C)oc2c1-c1[nH]ncc1CC2`, the cell number change is -12.3%.
With `Cc1cccc(Nc2ncc3c(n2)CC(C)CC3=O)c1` (stereo not drawn), the cell number change is -37.9%. In addition, the AC50 under setting [2] is 11.6 µM [falling, single point].
Turning to `O=C(NC1CCN(Cc2ccccc2)CC1)c1ccc(Cn2c(=S)[nH]c3ccc(N4CCOCC4)cc3c2=O)cc1`, the cell number change is -41.3%. Further, under setting [2], the AC50 is 23.1 µM [falling, single point]. The AC50 under setting [1] is 29.1 µM [falling, single point].
Turning to `COc1ccccc1NC(=O)C1CCCN1S(=O)(=O)c1ccc(Cl)cc1` (stereo not drawn), the cell number change was determined as 41%. The concentration at half-maximal activity (AC50) under setting [2] was 20.6 µM [rising, single point]. For the same compound, the AC50 under setting [1] was 29.1 µM [rising, single point].
Consider `Cn1nc(C(=O)N2CCN(c3ccccn3)CC2)c2ccccc2c1=O`, for which the cell number change is 32.1%. Under setting [2], the AC50 is 5.8 µM [rising, single point].
